This is an account of results in publication PMC11332348.

The chains behind the UniProt entries cited, without tags or fusion partners.
UniProt Q7Z434: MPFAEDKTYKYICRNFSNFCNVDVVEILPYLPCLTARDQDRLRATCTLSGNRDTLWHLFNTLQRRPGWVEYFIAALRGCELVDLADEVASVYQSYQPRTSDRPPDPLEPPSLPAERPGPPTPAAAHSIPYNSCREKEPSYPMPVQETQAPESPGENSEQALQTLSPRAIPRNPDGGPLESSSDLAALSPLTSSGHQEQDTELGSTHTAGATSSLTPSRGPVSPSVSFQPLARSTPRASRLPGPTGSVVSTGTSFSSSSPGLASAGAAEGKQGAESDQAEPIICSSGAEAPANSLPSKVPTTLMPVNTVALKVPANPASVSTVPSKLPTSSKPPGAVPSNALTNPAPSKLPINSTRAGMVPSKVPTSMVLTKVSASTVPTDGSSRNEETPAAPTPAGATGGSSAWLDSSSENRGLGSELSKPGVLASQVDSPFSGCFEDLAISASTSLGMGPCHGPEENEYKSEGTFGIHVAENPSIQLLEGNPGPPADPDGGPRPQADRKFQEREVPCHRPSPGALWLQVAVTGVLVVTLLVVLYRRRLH

These are yes or no findings as the source states them, for the method shown. In cells and extracts the contact can be indirect. Some binding calls cover weakened binding; strength is not graded here.

This assay concerns the target endogenous MAVS (mitochondrial antiviral signaling protein) (human (endogenous in A549)) (UniProt Q7Z434). Put plainly: co-IP; A549 transfected with EV or HA-σ3 for 12 h, then poly(I:C) for 12 h; lysate, protein G, immunoprecipitated with MAVS antibody; Western blot for RIG-I, MDA5, MAVS and HA-σ3.

B1: endogenous MDA5 (melanoma differentiation-associated gene 5) (protein, UniProt Q9BYX4 1-1025)
chain: MSNGYSTDENFRYLISCFRARVKMYIQVEPVLDYLTFLPAEVKEQIQRTVATSGNMQAVELLLSTLEKGVWHLGWTREFVEALRRTGSPLAARYMNPELTDLPSPSFENAHDEYLQLLNLLQPTLVDKLLVRDVLDKCMEEELLTIEDRNRIAAAENNGNESGVRELLKRIVQKENWFSAFLNVLRQTGNNELVQELTGSDCSESNAEIENLSQVDGPQVEEQLLSTTVQPNLEKEVWGMENNSSESSFADSSVVSESDTSLAEGSVSCLDESLGHNSNMGSDSGTMGSDSDEENVAARASPEPELQLRPYQMEVAQPALEGKNIIICLPTGSGKTRVAVYIAKDHLDKKKKASEPGKVIVLVNKVLLVEQLFRKEFQPFLKKWYRVIGLSGDTQLKISFPEVVKSCDIIISTAQILENSLLNLENGEDAGVQLSDFSLIIIDECHHTNKEAVYNNIMRHYLMQKLKNNRLKKENKPVIPLPQILGLTASPGVGGATKQAKAEEHILKLCANLDAFTIKTVKENLDQLKNQIQEPCKKFAIADATREDPFKEKLLEIMTRIQTYCQMSPMSDFGTQPYEQWAIQMEKKAAKEGNRKERVCAEHLRKYNEALQINDTIRMIDAYTHLETFYNEEKDKKFAVIEDDSDEGGDDEYCDGDEDEDDLKKPLKLDETDRFLMTLFFENNKMLKRLAENPEYENEKLTKLRNTIMEQYTRTEESARGIIFTKTRQSAYALSQWITENEKFAEVGVKAHHLIGAGHSSEFKPMTQNEQKEVISKFRTGKINLLIATTVAEEGLDIKECNIVIRYGLVTNEIAMVQARGRARADESTYVLVAHSGSGVIEHETVNDFREKMMYKAIHCVQNMKPEEYAHKILELQMQSIMEKKMKTKRNIAKHYKNNPSLITFLCKNCSVLACSGEDIHVIEKMHHVNMTPEFKELYIVRENKALQKKCADYQINGEIICKCGQAWGTMMVHKGLDLPCLKIRNFVVVFKNNSTKKQYKKWVELPITFPNLDYSECCLFSDED
For the molecule B1, the binding result is on record as “binds”.
